From the supplement of paper PMC7666118
This is one part of the list.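 Rule for the calls: active = dose-dependent thermal stabilisation significant by F-test of dose-response against flat model at 10% FDR; inactive = not significant.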

Amino acid sequences for entries named in this document (tags omitted). A change or cut given only in a name is not applied to a line headed by its entry.
UniProt P52298: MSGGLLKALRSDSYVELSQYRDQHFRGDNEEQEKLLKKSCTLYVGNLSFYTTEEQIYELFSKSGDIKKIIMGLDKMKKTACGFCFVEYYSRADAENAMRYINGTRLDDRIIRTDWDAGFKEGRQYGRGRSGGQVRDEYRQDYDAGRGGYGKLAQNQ
UniProt Q16656: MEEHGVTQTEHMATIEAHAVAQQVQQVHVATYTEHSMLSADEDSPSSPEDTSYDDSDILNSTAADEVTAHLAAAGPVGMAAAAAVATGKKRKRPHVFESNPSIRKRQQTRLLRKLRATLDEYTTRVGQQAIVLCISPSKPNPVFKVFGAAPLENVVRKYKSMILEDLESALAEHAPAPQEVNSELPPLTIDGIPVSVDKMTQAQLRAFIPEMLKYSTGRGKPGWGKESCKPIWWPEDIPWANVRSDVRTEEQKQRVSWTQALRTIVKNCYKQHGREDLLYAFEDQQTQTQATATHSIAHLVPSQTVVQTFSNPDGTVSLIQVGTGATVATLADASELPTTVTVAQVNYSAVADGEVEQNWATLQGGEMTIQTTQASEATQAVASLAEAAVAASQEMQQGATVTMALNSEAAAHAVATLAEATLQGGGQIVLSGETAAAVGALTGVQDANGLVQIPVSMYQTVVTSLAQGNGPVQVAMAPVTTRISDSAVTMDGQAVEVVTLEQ
UniProt P52948: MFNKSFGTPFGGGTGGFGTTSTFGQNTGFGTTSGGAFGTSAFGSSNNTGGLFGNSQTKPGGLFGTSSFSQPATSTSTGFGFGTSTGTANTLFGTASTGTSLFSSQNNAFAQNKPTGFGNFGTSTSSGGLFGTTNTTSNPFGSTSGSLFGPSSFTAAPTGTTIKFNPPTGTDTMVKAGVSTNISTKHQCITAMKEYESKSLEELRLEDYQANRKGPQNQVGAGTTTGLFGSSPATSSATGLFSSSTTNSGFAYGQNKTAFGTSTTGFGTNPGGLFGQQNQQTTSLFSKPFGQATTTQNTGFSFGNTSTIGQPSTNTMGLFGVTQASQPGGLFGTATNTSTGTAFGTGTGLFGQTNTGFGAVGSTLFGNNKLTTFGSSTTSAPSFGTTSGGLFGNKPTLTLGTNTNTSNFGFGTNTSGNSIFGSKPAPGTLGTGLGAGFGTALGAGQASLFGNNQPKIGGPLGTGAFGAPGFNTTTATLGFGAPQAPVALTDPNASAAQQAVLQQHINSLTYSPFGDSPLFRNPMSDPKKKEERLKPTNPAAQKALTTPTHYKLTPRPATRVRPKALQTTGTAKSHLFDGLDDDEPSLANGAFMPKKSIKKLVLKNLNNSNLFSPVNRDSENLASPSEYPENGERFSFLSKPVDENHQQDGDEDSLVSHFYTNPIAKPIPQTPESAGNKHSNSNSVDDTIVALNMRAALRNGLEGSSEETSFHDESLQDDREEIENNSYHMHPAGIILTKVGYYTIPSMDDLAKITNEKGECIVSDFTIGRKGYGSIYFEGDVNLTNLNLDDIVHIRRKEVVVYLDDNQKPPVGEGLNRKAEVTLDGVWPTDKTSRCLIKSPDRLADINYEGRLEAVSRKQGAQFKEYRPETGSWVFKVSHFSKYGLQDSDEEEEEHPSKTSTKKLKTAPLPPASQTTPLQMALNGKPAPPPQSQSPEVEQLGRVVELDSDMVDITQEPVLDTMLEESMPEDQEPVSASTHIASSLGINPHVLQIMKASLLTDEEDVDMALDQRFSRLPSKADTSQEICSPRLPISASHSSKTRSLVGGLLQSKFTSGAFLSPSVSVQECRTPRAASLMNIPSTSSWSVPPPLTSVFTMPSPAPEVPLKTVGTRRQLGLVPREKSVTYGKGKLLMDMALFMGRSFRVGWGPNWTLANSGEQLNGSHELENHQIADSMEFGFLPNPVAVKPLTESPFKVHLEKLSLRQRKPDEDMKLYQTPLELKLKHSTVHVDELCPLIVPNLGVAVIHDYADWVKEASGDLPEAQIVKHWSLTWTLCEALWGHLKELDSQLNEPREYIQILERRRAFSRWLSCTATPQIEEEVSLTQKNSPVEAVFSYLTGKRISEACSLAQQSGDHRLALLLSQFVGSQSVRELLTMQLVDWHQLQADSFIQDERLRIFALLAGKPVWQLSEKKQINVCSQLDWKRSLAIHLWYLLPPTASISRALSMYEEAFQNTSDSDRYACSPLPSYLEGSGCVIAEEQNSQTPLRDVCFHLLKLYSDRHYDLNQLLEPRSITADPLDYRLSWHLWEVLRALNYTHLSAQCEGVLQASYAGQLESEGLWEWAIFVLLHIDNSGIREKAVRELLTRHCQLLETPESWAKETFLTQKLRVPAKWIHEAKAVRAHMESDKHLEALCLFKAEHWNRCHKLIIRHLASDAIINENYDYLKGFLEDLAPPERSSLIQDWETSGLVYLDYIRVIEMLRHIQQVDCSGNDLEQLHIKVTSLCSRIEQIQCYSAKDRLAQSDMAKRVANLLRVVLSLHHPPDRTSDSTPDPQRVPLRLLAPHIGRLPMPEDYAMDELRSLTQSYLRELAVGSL
UniProt Q9BW91: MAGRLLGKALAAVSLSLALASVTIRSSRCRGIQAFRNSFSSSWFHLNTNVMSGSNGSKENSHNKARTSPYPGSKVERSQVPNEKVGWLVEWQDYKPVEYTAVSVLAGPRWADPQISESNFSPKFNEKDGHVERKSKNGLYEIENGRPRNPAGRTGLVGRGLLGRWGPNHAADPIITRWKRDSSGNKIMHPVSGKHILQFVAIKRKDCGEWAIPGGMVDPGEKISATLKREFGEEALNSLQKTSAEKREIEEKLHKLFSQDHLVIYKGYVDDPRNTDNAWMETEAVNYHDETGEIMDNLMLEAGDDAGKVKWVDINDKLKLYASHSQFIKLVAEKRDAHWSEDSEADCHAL
UniProt Q9UHY1: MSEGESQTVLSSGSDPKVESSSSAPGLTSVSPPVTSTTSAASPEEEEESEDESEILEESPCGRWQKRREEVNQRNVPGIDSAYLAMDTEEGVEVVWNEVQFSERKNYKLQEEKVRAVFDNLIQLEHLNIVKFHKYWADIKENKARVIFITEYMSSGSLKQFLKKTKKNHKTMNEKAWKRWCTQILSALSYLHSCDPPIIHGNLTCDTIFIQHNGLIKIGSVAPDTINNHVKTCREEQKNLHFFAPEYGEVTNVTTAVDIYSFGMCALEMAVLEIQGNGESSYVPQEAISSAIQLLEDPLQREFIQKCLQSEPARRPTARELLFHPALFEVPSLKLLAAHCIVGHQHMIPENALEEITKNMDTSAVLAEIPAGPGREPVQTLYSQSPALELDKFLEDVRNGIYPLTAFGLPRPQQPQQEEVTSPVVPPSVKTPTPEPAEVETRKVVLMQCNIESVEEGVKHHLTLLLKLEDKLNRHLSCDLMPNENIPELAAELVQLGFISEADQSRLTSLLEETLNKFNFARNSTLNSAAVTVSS
UniProt O43847: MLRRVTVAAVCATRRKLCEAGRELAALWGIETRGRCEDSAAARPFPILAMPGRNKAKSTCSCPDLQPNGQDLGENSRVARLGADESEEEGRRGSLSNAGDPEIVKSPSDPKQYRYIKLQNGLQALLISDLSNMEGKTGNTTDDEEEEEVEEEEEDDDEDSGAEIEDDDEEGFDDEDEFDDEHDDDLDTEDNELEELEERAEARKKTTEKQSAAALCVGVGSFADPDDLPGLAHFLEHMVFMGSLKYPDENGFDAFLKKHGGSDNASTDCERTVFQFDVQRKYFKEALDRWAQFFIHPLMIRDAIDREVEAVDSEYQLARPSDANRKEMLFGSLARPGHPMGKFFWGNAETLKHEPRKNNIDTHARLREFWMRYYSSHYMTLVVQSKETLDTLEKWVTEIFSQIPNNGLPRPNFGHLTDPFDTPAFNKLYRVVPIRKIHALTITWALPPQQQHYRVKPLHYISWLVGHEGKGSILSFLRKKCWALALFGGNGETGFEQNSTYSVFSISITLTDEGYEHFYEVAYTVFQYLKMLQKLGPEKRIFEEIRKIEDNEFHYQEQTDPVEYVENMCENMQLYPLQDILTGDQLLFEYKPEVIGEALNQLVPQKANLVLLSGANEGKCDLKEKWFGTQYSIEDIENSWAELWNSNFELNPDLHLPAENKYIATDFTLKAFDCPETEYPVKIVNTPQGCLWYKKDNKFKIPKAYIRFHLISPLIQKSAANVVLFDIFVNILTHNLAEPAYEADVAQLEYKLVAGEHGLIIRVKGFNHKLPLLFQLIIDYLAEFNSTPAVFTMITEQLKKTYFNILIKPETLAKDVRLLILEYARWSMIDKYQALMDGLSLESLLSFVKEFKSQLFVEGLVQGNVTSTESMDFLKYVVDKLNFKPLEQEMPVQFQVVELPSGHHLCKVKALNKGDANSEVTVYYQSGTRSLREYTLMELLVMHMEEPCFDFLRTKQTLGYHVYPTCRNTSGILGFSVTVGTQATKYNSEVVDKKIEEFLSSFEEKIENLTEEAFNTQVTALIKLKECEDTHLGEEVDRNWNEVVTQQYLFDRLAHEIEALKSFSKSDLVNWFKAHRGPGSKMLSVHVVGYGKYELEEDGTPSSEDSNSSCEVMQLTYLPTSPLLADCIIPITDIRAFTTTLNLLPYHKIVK
UniProt P51513: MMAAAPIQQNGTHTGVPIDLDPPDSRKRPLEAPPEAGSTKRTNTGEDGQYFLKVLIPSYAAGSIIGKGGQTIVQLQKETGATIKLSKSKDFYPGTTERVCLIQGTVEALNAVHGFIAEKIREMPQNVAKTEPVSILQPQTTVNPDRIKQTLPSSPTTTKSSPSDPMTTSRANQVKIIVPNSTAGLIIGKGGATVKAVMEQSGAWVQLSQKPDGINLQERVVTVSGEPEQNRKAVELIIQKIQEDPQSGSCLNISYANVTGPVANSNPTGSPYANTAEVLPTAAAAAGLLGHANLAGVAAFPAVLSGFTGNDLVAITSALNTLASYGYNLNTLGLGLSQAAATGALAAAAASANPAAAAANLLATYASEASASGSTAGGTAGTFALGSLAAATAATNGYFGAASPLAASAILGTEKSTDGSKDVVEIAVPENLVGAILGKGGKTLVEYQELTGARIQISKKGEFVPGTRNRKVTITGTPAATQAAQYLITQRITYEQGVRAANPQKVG
UniProt Q9Y2I1: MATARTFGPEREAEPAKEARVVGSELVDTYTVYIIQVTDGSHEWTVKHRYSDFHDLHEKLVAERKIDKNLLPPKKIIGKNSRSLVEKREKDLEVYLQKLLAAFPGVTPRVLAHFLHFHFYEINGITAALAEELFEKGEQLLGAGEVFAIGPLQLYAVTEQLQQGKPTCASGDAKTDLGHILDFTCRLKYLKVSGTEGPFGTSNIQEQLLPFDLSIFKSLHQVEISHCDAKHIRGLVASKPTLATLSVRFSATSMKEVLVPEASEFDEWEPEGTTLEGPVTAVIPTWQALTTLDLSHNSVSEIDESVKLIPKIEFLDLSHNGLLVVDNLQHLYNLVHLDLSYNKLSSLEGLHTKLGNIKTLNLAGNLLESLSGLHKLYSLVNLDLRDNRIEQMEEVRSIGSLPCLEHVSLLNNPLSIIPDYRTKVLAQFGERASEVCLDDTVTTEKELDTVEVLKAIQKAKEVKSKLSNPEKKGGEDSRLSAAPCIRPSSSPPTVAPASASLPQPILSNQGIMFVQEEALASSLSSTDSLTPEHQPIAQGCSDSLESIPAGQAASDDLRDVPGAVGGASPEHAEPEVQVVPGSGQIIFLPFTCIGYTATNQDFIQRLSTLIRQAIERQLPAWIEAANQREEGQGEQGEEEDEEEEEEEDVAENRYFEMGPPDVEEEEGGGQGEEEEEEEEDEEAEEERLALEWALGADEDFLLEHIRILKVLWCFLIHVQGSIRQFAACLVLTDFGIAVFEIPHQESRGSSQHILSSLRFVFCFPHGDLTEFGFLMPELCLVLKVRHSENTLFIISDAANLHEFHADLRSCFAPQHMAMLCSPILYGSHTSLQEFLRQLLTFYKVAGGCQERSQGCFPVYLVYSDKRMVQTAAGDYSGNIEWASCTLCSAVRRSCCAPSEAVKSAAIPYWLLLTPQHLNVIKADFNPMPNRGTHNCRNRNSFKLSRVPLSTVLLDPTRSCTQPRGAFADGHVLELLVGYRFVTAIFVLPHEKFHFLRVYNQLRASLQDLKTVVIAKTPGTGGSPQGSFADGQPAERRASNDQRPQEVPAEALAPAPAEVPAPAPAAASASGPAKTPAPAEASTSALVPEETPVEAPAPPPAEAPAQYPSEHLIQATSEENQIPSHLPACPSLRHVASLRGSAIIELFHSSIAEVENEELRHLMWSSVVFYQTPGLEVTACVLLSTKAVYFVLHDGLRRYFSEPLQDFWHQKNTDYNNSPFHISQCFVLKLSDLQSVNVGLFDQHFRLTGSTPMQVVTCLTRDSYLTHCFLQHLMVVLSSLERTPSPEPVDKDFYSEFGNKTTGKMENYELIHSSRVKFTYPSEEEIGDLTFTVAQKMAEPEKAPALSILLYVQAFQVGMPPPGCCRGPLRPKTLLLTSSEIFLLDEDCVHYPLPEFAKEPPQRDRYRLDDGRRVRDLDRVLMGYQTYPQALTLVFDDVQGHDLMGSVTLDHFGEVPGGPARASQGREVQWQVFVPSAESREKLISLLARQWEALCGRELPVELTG

Compound: Nc1nc2c(ncn2[C@@H]2O[C@H](COP(=O)(O)OP(=O)(O)OP(=O)(O)O)[C@@H](O)[C@H]2O)c(=O)[nH]1
Assay: dose-dependent thermal stabilisation call (2D-TPP, DLPTP, 10% FDR) (binary (1 = stabilised)); higher = stabilised by the compound
Settings: system: Jurkat gel-filtered lysate; concentration range 1-500 µM
Experimental: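 2D thermal proteome profiling in gel-filtered Jurkat E6.1 lysate (2 mg/ml) treated with NaGTP (0, 1, 10, 100, 500 uM) for 10 min at room temperature, then heated 3 min at one of 12 temperatures (42-63.9 C). Soluble protein was quantified by TMT10 MS. The value is the DLPTP call of the paper: dose-dependent thermal stabilisation over all temperatures at 10% FDR (F-test of a dose-response against a flat model); one experiment, one call per tested protein.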

dose-dependent thermal stabilisation call, inactive:
NCBP2 (UniProt P52298) 0
NIPSNAP3A (UniProt Q9UFN0) 0
NOP58 (UniProt Q9Y2X3) 0
PACS2 (UniProt Q86VP3) 0
OAT (UniProt P04181) 0
NBN (UniProt O60934) 0
NECTIN1 (UniProt Q15223) 0
NRF1 (UniProt Q16656) 0
N4BP2 (UniProt Q86UW6) 0
NPM1 (UniProt P06748) 0
NOLC1 (UniProt Q14978) 0
PARP1 (UniProt P09874) 0
NSRP1 (UniProt Q9H0G5) 0
NUP93 (UniProt Q8N1F7) 0
NUP98 (UniProt P52948) 0
NT5C3A (UniProt Q9H0P0) 0
NUP133 (UniProt Q8WUM0) 0
NUDT3 (UniProt O95989) 0
NUDT9 (UniProt Q9BW91) 0
NDE1 (UniProt Q9NXR1) 0
NAGA (UniProt P17050) 0
OTUB2 (UniProt Q96DC9) 0
NCKIPSD (UniProt Q9NZQ3) 0
NUDT18 (UniProt Q6ZVK8) 0
NOL4L (UniProt Q96MY1) 0
OTUD5 (UniProt Q96G74) 0
NAA15 (UniProt Q9BXJ9) 0
NRBP1 (UniProt Q9UHY1) 0
NRDC (UniProt O43847) 0
NR2C2 (UniProt P49116) 0
NOVA1 (UniProt P51513) 0
NEDD8 (UniProt Q15843) 0

Quoted at random: 3 records from the list
dose-dependent thermal stabilisation call, inactive:
NRDC (UniProt O43847) 0
NUDT9 (UniProt Q9BW91) 0
NUP133 (UniProt Q8WUM0) 0

Next part.

dose-dependent thermal stabilisation call, active:
PABPC4 (UniProt Q13310) 1
OAS3 (UniProt Q9Y6K5) 1
PANK3 (UniProt Q9H999) 1
PARD6B (UniProt Q9BYG5) 1
NADK2 (UniProt Q4G0N4) 1
PANK2 (UniProt Q9BZ23) 1
PANK4 (UniProt Q9NVE7) 1
NISCH (UniProt Q9Y2I1) 1
